No constants are given. Whether binding was seen depends on the method and setting. Binding seen in cells or lysates may run through a third protein. Some entries that bind do so weakly or less than the wild type.
What was measured:
[1] = target: RPA32-pS4/S8 (human (endogenous in U2OS)) (UniProt P15927); assay: proximity ligation; U2OS cells; Duolink PLA between endogenous CSB and RPA32-pS33 or RPA32-pS4/S8; with or without 4 mM HU for 4 h; U2OS CSB-KO as control; also after siMUS81 or siSMARCAL1
[2] = target: RPA32-pS33 (human (endogenous in U2OS)) (UniProt P15927); assay: as above
[3] = target: RPA32-pS33 (human (endogenous in U2OS)) (UniProt P15927); assay: proximity ligation; hTERT-RPE CSB-KO cells expressing Myc-CSB or Myc-CSB-AAA; PLA between Myc-CSB and RPA32-pS33; HU-treated (Supplementary Figure S6A)
[4] = target: RPA32-pS33 (human (endogenous in U2OS)) (UniProt P15927); assay: proximity ligation; U2OS CSB-KO cells stably expressing vector, Myc-CSB or Myc-CSB-AAA; Duolink PLA between anti-Myc and RPA32-pS33; HU-treated
Myc-RPA70 = Myc-RPA70 (UniProt P27694); assay: co-IP; HEK293 cells overexpressing both partners; IP with anti-Myc antibody; blots with anti-Myc and anti-mCherry or anti-HA; with or without 4 mM HU for 4 h
Myc-RPA32 = Myc-RPA32 (UniProt P15927); assay: as above

The chains behind the UniProt entries cited, without tags or fusion partners. Where a name states a change or a piece, a line headed by the entry shows the natural chain unless it says otherwise. A line that says so, or that is headed by a name, gives the form on record, which may keep a tag or linker.
UniProt P15927: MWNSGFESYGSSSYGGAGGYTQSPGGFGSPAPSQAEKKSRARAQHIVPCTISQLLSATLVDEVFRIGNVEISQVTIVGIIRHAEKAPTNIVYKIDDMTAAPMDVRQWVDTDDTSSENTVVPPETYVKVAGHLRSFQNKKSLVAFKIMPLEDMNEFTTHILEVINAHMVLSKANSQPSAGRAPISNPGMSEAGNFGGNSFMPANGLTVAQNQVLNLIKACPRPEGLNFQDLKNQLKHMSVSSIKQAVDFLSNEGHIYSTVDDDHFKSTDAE
UniProt P27694: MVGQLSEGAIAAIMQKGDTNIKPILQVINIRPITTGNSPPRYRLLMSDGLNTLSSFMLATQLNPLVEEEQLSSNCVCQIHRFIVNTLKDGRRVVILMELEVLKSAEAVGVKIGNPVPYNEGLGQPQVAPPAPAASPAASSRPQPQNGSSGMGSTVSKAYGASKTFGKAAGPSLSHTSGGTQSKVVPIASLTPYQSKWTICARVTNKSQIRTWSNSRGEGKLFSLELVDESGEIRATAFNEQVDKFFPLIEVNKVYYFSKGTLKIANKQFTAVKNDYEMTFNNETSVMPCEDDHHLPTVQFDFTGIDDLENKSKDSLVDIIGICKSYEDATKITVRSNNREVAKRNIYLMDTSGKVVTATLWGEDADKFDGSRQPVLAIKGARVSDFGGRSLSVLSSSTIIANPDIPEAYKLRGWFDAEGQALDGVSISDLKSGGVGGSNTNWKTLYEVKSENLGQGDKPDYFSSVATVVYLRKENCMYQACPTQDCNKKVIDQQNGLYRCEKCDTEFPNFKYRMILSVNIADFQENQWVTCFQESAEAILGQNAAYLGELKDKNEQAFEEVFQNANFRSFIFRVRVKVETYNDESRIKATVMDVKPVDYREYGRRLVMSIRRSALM
Myc-CSB-R176Q177K178-AAA (Q03468-1, form named): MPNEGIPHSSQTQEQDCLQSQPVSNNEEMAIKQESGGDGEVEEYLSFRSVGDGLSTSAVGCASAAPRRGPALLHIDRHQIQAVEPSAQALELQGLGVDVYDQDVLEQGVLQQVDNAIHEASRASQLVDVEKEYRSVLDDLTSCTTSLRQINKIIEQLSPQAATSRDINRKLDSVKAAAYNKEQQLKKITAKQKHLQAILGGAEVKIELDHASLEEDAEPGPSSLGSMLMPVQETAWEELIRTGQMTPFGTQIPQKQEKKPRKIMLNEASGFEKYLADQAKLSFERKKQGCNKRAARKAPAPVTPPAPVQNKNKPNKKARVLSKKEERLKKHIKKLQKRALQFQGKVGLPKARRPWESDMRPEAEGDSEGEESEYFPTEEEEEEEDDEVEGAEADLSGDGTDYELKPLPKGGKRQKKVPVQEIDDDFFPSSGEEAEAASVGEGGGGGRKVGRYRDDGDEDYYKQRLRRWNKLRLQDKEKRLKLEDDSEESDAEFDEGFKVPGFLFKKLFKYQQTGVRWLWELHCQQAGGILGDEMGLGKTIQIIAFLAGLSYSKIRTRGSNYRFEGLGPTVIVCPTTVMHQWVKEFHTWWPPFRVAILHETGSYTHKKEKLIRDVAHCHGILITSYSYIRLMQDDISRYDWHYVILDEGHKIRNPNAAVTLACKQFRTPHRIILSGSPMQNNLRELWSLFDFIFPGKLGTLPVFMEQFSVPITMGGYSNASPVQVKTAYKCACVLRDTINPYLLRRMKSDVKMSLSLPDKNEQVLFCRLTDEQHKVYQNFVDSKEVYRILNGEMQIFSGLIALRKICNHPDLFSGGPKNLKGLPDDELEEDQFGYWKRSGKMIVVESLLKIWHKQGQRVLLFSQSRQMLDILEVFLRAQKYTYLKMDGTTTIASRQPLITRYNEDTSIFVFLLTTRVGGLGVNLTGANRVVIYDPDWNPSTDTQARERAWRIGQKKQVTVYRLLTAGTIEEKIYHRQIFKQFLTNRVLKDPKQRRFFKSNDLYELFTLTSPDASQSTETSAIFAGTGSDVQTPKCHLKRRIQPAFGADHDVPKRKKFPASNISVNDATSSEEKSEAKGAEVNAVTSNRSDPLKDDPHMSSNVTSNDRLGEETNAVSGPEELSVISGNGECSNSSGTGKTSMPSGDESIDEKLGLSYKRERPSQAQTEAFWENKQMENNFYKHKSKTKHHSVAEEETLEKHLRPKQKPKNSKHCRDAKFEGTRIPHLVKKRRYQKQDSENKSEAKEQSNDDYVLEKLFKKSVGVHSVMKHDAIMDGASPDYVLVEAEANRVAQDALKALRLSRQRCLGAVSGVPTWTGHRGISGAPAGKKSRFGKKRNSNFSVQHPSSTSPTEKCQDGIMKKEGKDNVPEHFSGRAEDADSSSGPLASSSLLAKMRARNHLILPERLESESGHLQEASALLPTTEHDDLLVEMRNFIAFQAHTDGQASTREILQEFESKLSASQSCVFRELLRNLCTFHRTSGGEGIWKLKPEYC

Substance	binding [3]	binding [4]	further results
endogenous CSB (from UniProt Q03468-1 1-1493)			binding [1]: binds; binding [2]: binds
Myc-tagged wild type CSB (from UniProt Q03468-1 1-1493)	binds	binds	
mCherry-LacR-CSB full length carrying R176Q177K178-AAA mutations (from UniProt Q03468-1 1-1493)			binding (Myc-RPA70): binds
Myc-CSB-R176Q177K178-AAA (from UniProt Q03468-1 1-1493)	binds	binds	
mCherry-LacR-CSB full length (from UniProt Q03468-1 1-1493)			binding (Myc-RPA32): binds
